Among the data in PMC6335053 are binding values, retold here.

Amino acid sequences for entries named in this document (tags omitted). A change or cut given only in a name is not applied to a line headed by its entry.
UniProt P08172: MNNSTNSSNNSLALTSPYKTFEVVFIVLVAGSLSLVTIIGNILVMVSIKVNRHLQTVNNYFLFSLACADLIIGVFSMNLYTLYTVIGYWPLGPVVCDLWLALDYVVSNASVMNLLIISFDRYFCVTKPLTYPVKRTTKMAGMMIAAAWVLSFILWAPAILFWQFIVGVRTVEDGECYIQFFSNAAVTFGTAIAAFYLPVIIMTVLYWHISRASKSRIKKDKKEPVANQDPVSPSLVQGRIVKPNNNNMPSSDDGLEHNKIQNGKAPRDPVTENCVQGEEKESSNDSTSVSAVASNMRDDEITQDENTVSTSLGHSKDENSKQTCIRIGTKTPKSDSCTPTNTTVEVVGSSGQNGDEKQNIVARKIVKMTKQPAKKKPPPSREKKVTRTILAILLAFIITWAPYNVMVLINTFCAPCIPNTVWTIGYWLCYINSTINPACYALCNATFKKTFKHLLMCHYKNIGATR
UniProt P48544: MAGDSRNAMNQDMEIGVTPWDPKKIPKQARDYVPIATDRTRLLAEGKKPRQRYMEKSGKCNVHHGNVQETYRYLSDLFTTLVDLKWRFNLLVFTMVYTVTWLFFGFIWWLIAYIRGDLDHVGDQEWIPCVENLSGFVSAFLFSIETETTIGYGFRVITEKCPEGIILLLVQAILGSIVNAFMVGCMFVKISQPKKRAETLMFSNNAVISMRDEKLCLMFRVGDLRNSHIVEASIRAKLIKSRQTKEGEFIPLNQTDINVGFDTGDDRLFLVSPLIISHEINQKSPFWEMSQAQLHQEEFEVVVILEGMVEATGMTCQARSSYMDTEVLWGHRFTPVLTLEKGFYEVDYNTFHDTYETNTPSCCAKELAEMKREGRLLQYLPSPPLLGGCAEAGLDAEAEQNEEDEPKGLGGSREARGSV

This assay has as its target M2R-GIRK concatemer (Halo-M2R-GIRK4-SNAP) (human) (UniProt P08172+P48544). The experiment in a line: SDS-PAGE with Western blot; HEK-293T cells transiently transfected with GPCR-GIRK4 concatemers, mixed with loading buffer containing 4% SDS and 10% β-mercaptoethanol; NuPAGE 4-12% Bis-Tris gels; anti-SNAP-tag or anti-HaloTag.

No constants are given. Whether binding was seen depends on the method and setting. Some entries that bind do so weakly or less than the wild type.

Consider “M2R-GIRK concatemer (Halo-M2R-GIRK4-SNAP) (from UniProt P08172 1-466; P48544 1-419)”, for which the binding entry was “binds”.
